# Measurements published in PubChem BioAssay AID493014 (National Center for Advancing Translational Sciences (NCATS), 2011).
# The whole screen tested about 340,000 compounds, of which about 170 (0.05%) were called active. Inconclusive results, whose numbers are uncertain, are shown with a selection of clear calls. The call rests on the fitted dose curve; in most records, active means well fitted inhibition curve with a large enough effect in the signal ratio, with a control signal flat (not every such curve was filed as active); inconclusive means small, poorly fitted or top-dose-only effect, or effect the other way, or a change in a side signal; inactive means flat fitted curve, though single readings scatter; the % refers to the signal ratio. Potencies beside an inconclusive call are fits to weak or partial responses and may not hold up.
# Experiment: qHTS Assay to Find Inhibitors of Chronic Active B-Cell Receptor Signaling;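 on activity change, negative = inhibition: plate controls were basal doxycycline-induced cells for no effect and cells given 10 µM MG132 for full effect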
# Conditions: ABC-DLBCL IkBa-CBG/CBR reporter, luminescence ratio (green luciferase fused to IkBa over red control in TMD8 lymphoma cells), 4 h; activity change, negative = inhibition: at 46.1 µM (top of the series) unless noted
# Outline: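 Concentration-response series (up to 46 uM) were applied to TMD8 dual-reporter cells for 4 h at 37C with doxycycline. Green/red ratio, after filter-overlap correction, defined %Activity; red signal alone was normalised to basal cells and zero luminescence.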
# Potency means the concentration at half of the fitted maximal effect.
Structure (SMILES),Potency,"activity change, negative = inhibition"
C/C(CC1CC(C)(C)OC1=O)=N\NC(N)=S (stereo unspecified),"inconclusive: 35.5 µM [falling, single point]",–
Cc1ccc2cc(CN(CCO)Cc3nnnn3Cc3ccc(F)cc3)c(=O)[nH]c2c1,–,inconclusive: -5.62%
O=C(C1CC(=O)N(c2ccccc2)C1)N1CCN(C2=NS(=O)(=O)c3ccccc32)CC1 (stereo unspecified),–,inconclusive: 1.94%
C[C@H]1C[C@H]2[C@@H]3CCC4=CC(=O)C=C[C@]4(C)[C@@]3(Cl)[C@@H](O)C[C@]2(C)[C@@]1(O)C(=O)CO,"inconclusive: 35.5 µM [falling, partial curve, poor fit]",–
COC(=O)C(NC(=O)C(C)Oc1ccccc1)C(C)C (stereo unspecified),–,inconclusive: 6.71%
Oc1cc(NCc2ccccc2)cc2cccnc12,"inconclusive: 18.4 µM [rising, single point]",–
COc1ccc(NC(=O)c2cc3ccccn3n2)cc1,"inconclusive: 16.4 µM [falling, single point]",–
O=C(c1cccc(-c2ccc(O)cc2)c1)N1CCN(c2ccc(F)cc2)CC1,–,inconclusive: 5.45%
CCn1c(CN2CCN(Cc3ccc(C)cc3)C(CCO)C2)nc2ccccc21 (stereo unspecified),–,inconclusive: -20.7%
O=c1[nH]c2cc3c(cc2cc1C(c1nnnn1CC1CCCO1)N1CCCCCC1)OCO3 (stereo unspecified),–,inconclusive: 19.8%
CC(C)[C@@H](C(=O)N[C@@H](Cc1ccccc1)C(=O)O)N1C(=O)N2CCc3c([nH]c4ccccc34)[C@@]2(C)C1=O,–,inconclusive: -8.43%
O=C(c1cccs1)N1CCN(Cc2cccc([N+](=O)[O-])c2)CC1,–,inactive
COC(=O)c1ccccc1N(C)S(C)(=O)=O,–,inconclusive: 4.55%
CCOC(=O)c1c(C)[nH]c(C(=O)COC(=O)CN2C(=O)C3CCCCC3C2=O)c1C (stereo unspecified),–,inconclusive: 2.25%
CCOc1ccccc1NC(=O)CCCNC(=O)c1ccc(Cl)cc1,–,inconclusive: -0.545%
CSc1nc(Cl)cc(N2CCOCC2)n1,–,inconclusive: 1.74%
COc1ccccc1CNC(=O)c1cc(C2CC2)nc2c1cnn2C(C)C,–,inactive
CCOC(=O)CCCCC(=O)c1[nH]c(=O)[nH]c1CSc1nc2ccccc2[nH]1,–,inconclusive: 13.7%
CCOc1ccccc1N(CC(=O)NC1CCCCC1)C(=O)CCC(=O)Nc1nccs1,–,inconclusive: 0.415%
CC(C)C[C@H](NC(=O)OC(C)(C)C)C(=O)N[C@@H](CO)[C@H](O)[C@@H]1C[C@@H]1C(=O)NC1CC1,–,inactive
COc1cccc(CNC(=O)c2cc3oc4ccccc4c3n2C)c1OC,–,inactive
Cc1cc(C)nc(N/N=C/c2ccccc2)n1,"inconclusive: 12.6 µM [falling, partial curve]",–
Cc1ccc(OCc2cc(C(=O)N(C)CCc3ccccc3)no2)cc1C,–,inconclusive: 6.08%
O=C(COc1ccc(-c2nnco2)cc1)Nc1c(F)cccc1F,"inconclusive: 20.6 µM [falling, partial curve, poor fit]",–
O=C(Nc1ccc2c(c1)OCO2)c1ccc2c(c1)OCO2,"inconclusive: 20.6 µM [falling, partial curve]",–
CNc1nc2c(-c3ccc(Cl)cc3)nnn2c2ccccc12,–,inconclusive: 2.12%

Structure (SMILES),Potency,"activity change, negative = inhibition"
CCOC(=O)Cc1c(Sc2ccccc2)c2ccccc2n1C,–,inconclusive: 18.8%
COCCCn1c(Cc2ccccc2)nnc1SCC(=O)N1CCCCC1,–,inconclusive: 0.628%
Cc1ccc(C)c(N2CCN(S(=O)(=O)c3cccc4cccnc34)CC2)c1,–,inconclusive: -5.34%
COCc1nc2ccccc2n1Cc1ccccc1Br,–,inconclusive: -2.04%
Nc1nc(-c2nc3ccccc3[nH]2)cs1,"inconclusive: 29.1 µM [falling, single point]",–
O=C(C1CCCN(S(=O)(=O)c2cnc[nH]2)C1)N1CC(=O)N(CCc2ccccc2)C(=O)C1 (stereo unspecified),–,inconclusive: 3.15%
FC(F)(F)c1cccc(NC(=S)NCC2COc3ccccc3O2)c1 (stereo unspecified),–,inconclusive: -1.36%
CN(CC(=O)Nc1ccc(Cl)cc1)C(=O)CNC(=O)c1ccc2ccccc2c1,–,inconclusive: -12.9%
N/C(=N\OC(=O)COc1ccc2ccccc2c1)c1cccnc1,–,inconclusive: 4.9%
N#C/C(=C\c1c[nH]c2ccccc12)C(N)=O,–,inactive
O=C(CC1Nc2ccccc2NC1=O)Nc1ccccc1NC(=O)CC1Nc2ccccc2NC1=O (stereo unspecified),–,inconclusive: 1.26%
COc1cccc(OC)c1C(=O)Nc1cccc(-c2nc3ccccc3[nH]2)c1,–,inconclusive: -0.638%
CC1CCCCN1S(=O)(=O)c1ccc(C(=O)Nc2nnc(-c3cccs3)o2)cc1 (stereo unspecified),"inconclusive: 20.6 µM [falling, single point]",–
COc1ccc2cc(OC)c(C(=O)N3CCOCC3)cc2c1,–,inconclusive: 5.64%
Cc1occc1C(=O)N1CCN(c2ncccn2)CC1,–,inconclusive: 7.63%
Clc1ccc(CSc2nnc(-c3ccncc3)o2)c(Cl)c1,–,inactive
Cc1ccccc1CN(C)CCS(=O)(=O)c1cc(Cl)ccc1Cl,"inconclusive: 7.08 µM [falling, partial curve]",–
Cc1ccc2nc(N3C(=O)CNC3=S)sc2c1,"inconclusive: 8.91 µM [falling, partial curve, poor fit]",–
CCN(C[C@H]1N[C@@](Cc2ccccc2)(C(=O)OC)[C@H]2C(=O)N(Cc3ccccc3)C(=O)[C@@H]12)C(=O)Nc1ccc(C)cc1,–,inconclusive: -3.56%
CN(C)NC(=O)c1ccc([N+](=O)[O-])s1,–,inactive
CC(=O)Nc1cccc(NC(=O)c2cccc(OCc3ccccc3)c2)c1,"inconclusive: 11.2 µM [falling, partial curve, poor fit]",–
Cc1ccc(OCCn2cc(Br)c(=O)[nH]c2=O)cc1,–,inconclusive: -0.483%
COc1cccc(NC(=O)Nc2cc(C(=O)O)ccc2C)c1,–,inactive
CC(C)C[C@H](NC(=O)c1nc[nH]c1C(=O)NCC(=O)OCc1ccccc1)C(=O)OCc1ccccc1,–,inconclusive: -20.9%
CCOC(=O)C1CCCCN1Cc1cccc(F)c1 (stereo unspecified),–,inconclusive: -4.82%

# A draw from above in order of number of heavy atoms, ascending.
Structure (SMILES),Potency,"activity change, negative = inhibition"
COCc1nc2ccccc2n1Cc1ccccc1Br,–,inconclusive: -2.04%
O=C(c1cccs1)N1CCN(Cc2cccc([N+](=O)[O-])c2)CC1,–,inactive
C[C@H]1C[C@H]2[C@@H]3CCC4=CC(=O)C=C[C@]4(C)[C@@]3(Cl)[C@@H](O)C[C@]2(C)[C@@]1(O)C(=O)CO,"inconclusive: 35.5 µM [falling, partial curve, poor fit]",–
